Laboratory results from PubChem BioAssay AID652054 (National Center for Advancing Translational Sciences (NCATS), 2013).
About 9,100 (2.5%) of roughly 360,000 compounds were called active. The shares of active, inactive and inconclusive entries below differ from those in the screen. No stated cut-off is given here; in the data, active means max response below about -50%; inconclusive means no clear call, values can overlap the other calls; inactive means above that.
On the % scale 0 is the no-effect control and ±100 the full control effect.

By UniProt entry, the sequences of proteins in these tests, tags left out.
UniProt P35462, whole entry, looked up: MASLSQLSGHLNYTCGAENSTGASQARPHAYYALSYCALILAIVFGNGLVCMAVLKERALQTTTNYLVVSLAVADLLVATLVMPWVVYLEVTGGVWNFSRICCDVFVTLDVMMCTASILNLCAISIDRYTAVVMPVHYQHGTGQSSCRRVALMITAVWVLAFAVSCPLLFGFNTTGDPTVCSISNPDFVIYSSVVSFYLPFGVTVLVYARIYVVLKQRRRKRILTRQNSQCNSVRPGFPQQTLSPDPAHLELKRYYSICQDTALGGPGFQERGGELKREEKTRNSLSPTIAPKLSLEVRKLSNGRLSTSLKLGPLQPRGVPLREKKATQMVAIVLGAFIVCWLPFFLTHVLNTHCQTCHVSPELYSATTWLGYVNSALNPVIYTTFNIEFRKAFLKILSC

What follows are compounds tested against D(3) dopamine receptor (Homo sapiens) (UniProt P35462) (assay: qHTS of D3 Dopamine Receptor Antagonist: qHTS). Settings: D3R cells, DiscoveRx beta-arrestin luminescence, antagonist mode; hits give low values.
Procedure, shortened: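 Cells expressing the human receptor were seeded at 1500 cells/well, incubated overnight at 37 degrees C in 5% CO2, then exposed to library compounds with dopamine controls for 90 minutes at 37 degrees C before luminescent detection.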
In the case of `CC(/C=C/C=C/c1ccccc1)=N\NC(=O)c1cccnc1`, the max response, negative = inhibition is reported as inactive: -8.89%.
`O=C(c1ccccc1-c1nc2ccccc2[nH]1)N1CCCCC1` was tested, and the max response, negative = inhibition was inactive: 0%.
In the case of `COc1cc(/C=C/c2sc3ccccc3[n+]2CCCS(=O)(=O)[O-])ccc1O`, the max response, negative = inhibition is reported as inconclusive: -35.2%.
For `CCSc1nnc(NC(=O)CSc2nnc(Cc3cccn3C)n2CCc2ccccc2)s1`, the max response, negative = inhibition was inconclusive: -38.7%.
`CNC(=S)NNC(=O)c1ccc(=O)n(Cc2ccc(Cl)cc2Cl)c1` was tested, and the max response, negative = inhibition was inconclusive: -35.8%.
For `CC1=C(CO)C(=O)OC([C@@H](C)C2CC[C@H]3C4C[C@H]5O[C@]56[C@@H](O)C=CC(=O)[C@]6(C)C4CC[C@]23C)C1` (some centres undefined), the max response, negative = inhibition was active: -136%.
With `Cc1ccnc(SCC(=O)c2ccc(Br)cc2)c1C#N` the max response, negative = inhibition was inconclusive: -40.5%.
`O=C(N/N=C/c1cc(Cl)cc([N+](=O)[O-])c1O)NC12CC3CC(CC(C3)C1)C2` was tested, and the max response, negative = inhibition was inconclusive: -42.1%.
For `Cc1cccc(C)c1NC(=O)C(=O)NCC1CCCN1S(=O)(=O)c1cccs1` (centres undefined), the max response, negative = inhibition was inactive: -15.2%.
For `Nc1nc(N2CCOCC2)nc2ccccc12`, the max response, negative = inhibition was inconclusive: -31.6%.
`CCC1CSC(Nc2ccc(C(=O)/C=C/c3ccc(Oc4ccccc4)cc3)cc2)=N1` (centres undefined) was tested, and the max response, negative = inhibition was inactive: -10.3%.
For `CCN(CC)c1ccc(C=Nc2ccc(OC)c(S(=O)(=O)N3CCOCC3)c2)c(O)c1`, the max response, negative = inhibition was inactive: -0.453%.
`CNC(=O)/C(=C\c1ccc([N+](=O)[O-])cc1)NC(C)=O` was tested, and the max response, negative = inhibition was inconclusive: -46.7%.
With `Cc1[nH]c2ccccc2c1N=Nc1cccc(C(=O)O)c1` the max response, negative = inhibition was inconclusive: -35.4%.
In the case of `CCN(CC)CCCNc1nc2cc(OC)c(OC)cc2c2nc(-c3ccccc3)nn12`, the max response, negative = inhibition is reported as inconclusive: -31.8%.
In the case of `COc1cc(/C=N/n2c(-c3n[nH]c4c3CCC4)n[nH]c2=S)cc(OC)c1O`, the max response, negative = inhibition is reported as inconclusive: -37.7%.
With `Cc1ccc2nc(C)cc(Nc3ccc4c(c3)OCCO4)c2c1` the max response, negative = inhibition was inconclusive: -41.9%.
In the case of `CCN(c1ccc(C)cc1C)S(=O)(=O)c1nnc(NC(=O)c2ccco2)s1`, the max response, negative = inhibition is reported as inconclusive: -44.7%.
With `Nc1ccc(Cl)c(-c2nc3ncccc3o2)c1` the max response, negative = inhibition was inconclusive: -37.4%.
`CCCCCc1ccc(-c2cn(Cc3ccc(C(=O)c4ccccc4)cc3)nn2)cc1` was tested, and the max response, negative = inhibition was inconclusive: -34.9%.
With `O=C(CN1CCN(C(=O)c2cccs2)CC1)Nc1ccc(Br)cc1` the max response, negative = inhibition was inconclusive: -45.3%.
In the case of `COc1ccccc1CNC(=O)c1cc(-c2cc(F)ccc2OC(C)C)n[nH]1`, the max response, negative = inhibition is reported as inconclusive: -32.1%.
For `COCCNC(=O)C1CCCN(Cc2cccc(Cl)c2)CC1` (centres undefined), the max response, negative = inhibition was inconclusive: -38.1%.
With `COc1ccc(Cl)cc1NC(=O)COC(=O)C1CC1` the max response, negative = inhibition was inactive: -10.9%.
With `O=C1OC(c2ccccc2)=C/C1=C/N1CCCCC1` the max response, negative = inhibition was inconclusive: -44.4%.
In the case of `Cc1cc(N/N=C/c2ccc(O)cc2O)nc(-c2ccccc2O)n1`, the max response, negative = inhibition is reported as inactive: 54.5%.
`O=C(COc1ccc2c3c(c(=O)oc2c1)CCC3)N[C@@H](CSCc1ccccc1)C(=O)O` was tested, and the max response, negative = inhibition was inactive: 1.23%.
For `COC(=O)c1ccc(CSc2ncnc3c2oc2ccccc23)o1`, the max response, negative = inhibition was inconclusive: -45.4%.
With `COc1ccc2ccc3c(c2c1)N=CC1(O3)N(C)c2ccccc2C1(C)C` (centres undefined) the max response, negative = inhibition was inconclusive: -42.6%.
With `CCOC(=O)COc1c(-c2ccc(OC)cc2)oc2ccccc2c1=O` the max response, negative = inhibition was inactive: 145%.
`Cc1ccc(S(=O)(=O)N2[C@@H](c3ccc(F)cc3)C(C(=O)O)=CC[C@H]2c2cccc(C)c2)cc1` was tested, and the max response, negative = inhibition was inconclusive: -37%.
For `CN1CCN(c2nc(-c3ccccn3)nc3ccccc23)CC1`, the max response, negative = inhibition was active: -50.7%.
With `CC(=O)N1CCN(S(=O)(=O)c2cccc(C(=O)OCN3C(=O)c4ccccc4C3=O)c2)CC1` the max response, negative = inhibition was inactive: 16.3%.
With `Cc1ccc(CCNS(=O)(=O)c2ccc(C)cc2)cc1` the max response, negative = inhibition was inconclusive: -49.8%.
For `COc1ccc(-c2cc3ccccc3n2CC(O)Cn2nc(C)cc2C)cc1` (centres undefined), the max response, negative = inhibition was inconclusive: -44.3%.
`O=S1(=O)CC(N2CCC(Cc3ccccc3)CC2)CN1C1CCCC1` (centres undefined) was tested, and the max response, negative = inhibition was inconclusive: -39.4%.
In the case of `Cc1sc(NC(=O)c2cccs2)nc1-c1ccccc1`, the max response, negative = inhibition is reported as inconclusive: -46.9%.
With `Cn1c(CCNC(=O)C2CCCCC2)nc2cc([N+](=O)[O-])ccc21` the max response, negative = inhibition was inconclusive: -30.4%.
For `C=CCCC(=O)Nc1ccc(Br)cn1`, the max response, negative = inhibition was inactive: 0.815%.
With `COc1ccccc1NC(=S)NC(=O)CC(C)C` the max response, negative = inhibition was inconclusive: -42.5%.
With `CCC(c1nnnn1-c1ccc2c(c1)OCCO2)N1CCN(c2ccccc2OC)CC1` (centres undefined) the max response, negative = inhibition was inactive: 26.4%.
In the case of `CC(Oc1cccc(Cl)c1)C(=O)Nc1ccc(S(=O)(=O)N(C)C2CCN(C)CC2)cc1` (centres undefined), the max response, negative = inhibition is reported as inactive: 0%.
For `COc1ccccc1-c1cc(C(F)(F)F)nc(S(=O)(=O)CCCC(=O)Nc2cccnc2Cl)n1`, the max response, negative = inhibition was active: -51.6%.
`CCS(=O)(=O)N1Cc2ccccc2CC1C(=O)Nc1nc2ccccc2[nH]1` (centres undefined) was tested, and the max response, negative = inhibition was inconclusive: -43.7%.
For `Cc1noc(C)c1S(=O)(=O)N(C)C[C@H]1Oc2c(NC(=O)NC(C)C)cccc2C(=O)N([C@H](C)CO)C[C@@H]1C`, the max response, negative = inhibition was inconclusive: -47.6%.
For `Cc1ccc(S(=O)(=O)N(CC(O)CN2CCCC2)c2ccccc2)cc1` (centres undefined), the max response, negative = inhibition was inconclusive: -41.9%.
With `Cc1cc(C)c2oc(=O)cc(CN3CCN(Cc4ccc5c(c4)OCO5)CC3)c2c1` the max response, negative = inhibition was inconclusive: -47.8%.
With `CCOC(=O)CCCn1c(C)nc(=O)c(-c2ccccc2)c1C` the max response, negative = inhibition was inconclusive: -32.2%.
With `OC(COc1ccc(Br)cc1)CN1CCOCC1` (centres undefined) the max response, negative = inhibition was inactive: -11.6%.
`CC(=O)Nc1ccc(-c2ccnc3c2CC(C(=O)NCc2ccc(N4CCN(C)CC4)cc2)O3)cc1` (centres undefined) was tested, and the max response, negative = inhibition was inactive: 9.05%.
In the case of `Cc1c(NC(=O)c2ccccc2N(C)S(=O)(=O)c2ccccc2)c(=O)n(-c2ccccc2)n1C`, the max response, negative = inhibition is reported as inconclusive: -34.2%.
In the case of `OCCn1ccc(-c2ccccc2OCc2ccc(F)cc2)n1`, the max response, negative = inhibition is reported as inactive: 2.68%.
With `CC1=NNC(=O)/C1=C\c1cn(-c2ccccc2)nc1-c1ccccc1` the max response, negative = inhibition was inconclusive: -32.9%.
With `Cc1cc(NC(=O)Nc2ccc(Cl)c(Cl)c2)n(-c2ccccc2)n1` the max response, negative = inhibition was inconclusive: -42.1%.
With `COc1cccc(C2/C(=C(\O)c3ccc(OC)c(OC)c3)C(=O)C(=O)N2c2cc(C)on2)c1` (centres undefined) the max response, negative = inhibition was inconclusive: -47%.
For `Cc1cccc(C)c1N1CCN(C(=O)Nc2ccc3c(c2)OCCO3)CC1`, the max response, negative = inhibition was inconclusive: -47.6%.
For `CC1CCCN(CCCOc2ccccc2-c2ccccc2)C1` (centres undefined), the max response, negative = inhibition was active: -67.1%.
With `Cc1ccc(C)c2sc(NC(=O)c3ccc(N4CCCCC4)c([N+](=O)[O-])c3)nc12` the max response, negative = inhibition was active: -59.1%.
With `CN(C)c1nc2ccc(OCCN3CCCCC3)cc2s1` the max response, negative = inhibition was active: -68.1%.
`Cc1cc(O)c2/c(=N\N)c(-c3csc(C)n3)coc2c1` was tested, and the max response, negative = inhibition was inactive: -8.45%.
In the case of `O=c1[nH]c(=S)[nH]c2c1[C@H](C1CC1)O[C@H](CCc1ccccc1)C2`, the max response, negative = inhibition is reported as active: -84%.
For `COc1ccc(NC(=O)CSCC(=O)N2CCN(c3cccc(C(F)(F)F)c3)CC2)cc1`, the max response, negative = inhibition was inactive: 4.65%.
For `O=C(c1ccc(F)cc1)C(CN1CCOCC1)c1ccccc1` (centres undefined), the max response, negative = inhibition was inconclusive: -32.1%.
In the case of `O=C(C[C@@H]1C=C[C@H](NC(=O)Cc2ccccn2)[C@@H](CO)O1)NCCc1ccccc1`, the max response, negative = inhibition is reported as inactive: 1.21%.
In the case of `CN1CCN(C2OC(=O)c3ccccc32)CC1` (centres undefined), the max response, negative = inhibition is reported as inactive: -11%.
In the case of `CCN1CCN(CC(=O)Nc2nc3ccc(OC)cc3s2)CC1`, the max response, negative = inhibition is reported as active: -66.1%.
With `CC(C)CC(=O)Nc1ccc(-c2cn3cccnc3n2)cc1` the max response, negative = inhibition was inactive: 0.0237%.
In the case of `CCc1ccc2[nH]c(=O)c(CN(CCN(CC)CC)C(=O)Nc3ccccc3OC)cc2c1`, the max response, negative = inhibition is reported as inconclusive: -49.7%.
`O=C(Cc1ccsc1)NCC(c1ccco1)N1CCCCC1` (centres undefined) was tested, and the max response, negative = inhibition was inconclusive: -31.4%.
With `COc1ccc([C@H]2CC(=O)C=C(c3cc4ccccc4s3)C2)cc1` the max response, negative = inhibition was inconclusive: -30.5%.
In the case of `O=C(c1csc2c1CCCC2)N1CCN(c2ncccn2)CC1`, the max response, negative = inhibition is reported as inactive: -11.9%.
`COc1ccc(N=Cc2nc(-c3ccco3)oc2O)cc1` was tested, and the max response, negative = inhibition was active: -51.7%.
In the case of `O=C(Nc1ccccc1Sc1ccccc1)c1ccc(F)cc1`, the max response, negative = inhibition is reported as inactive: -0.913%.
With `CCc1ccc2c(c1)cc(CN(C(=S)Nc1ccc(Cl)cc1)C1CC1)c1nnnn12` the max response, negative = inhibition was inconclusive: -31.5%.
`O=C(/C=C(O)/C=C/c1ccc(O)cc1)/C=C/c1ccc(O)cc1` was tested, and the max response, negative = inhibition was inconclusive: -37.8%.
`CCCOc1ccc(OCCCCNC(C)CC)cc1` (centres undefined) was tested, and the max response, negative = inhibition was active: -54.6%.
For `NC1=NC(=O)/C(=C\c2cc([N+](=O)[O-])ccc2Cl)S1`, the max response, negative = inhibition was inconclusive: -45.9%.
In the case of `O=C1CCc2cc(NS(=O)(=O)c3ccc(Br)cc3)cc3c2N1CC3`, the max response, negative = inhibition is reported as inactive: 4.41%.
With `CCC(=O)Nc1cccc(-c2nnc(SCC(=O)c3ccccc3)n2C)c1` the max response, negative = inhibition was active: -52.4%.
`CS(=O)(=O)c1nc2c(cc1C#N)CCCC2` was tested, and the max response, negative = inhibition was inconclusive: -30.3%.
`c1csc(CN2CCOCC2)c1` was tested, and the max response, negative = inhibition was inconclusive: -38.3%.
`Cc1c(C(=O)N(C)Cc2ccccc2)oc2ccc(S(=O)(=O)N3CCCC3)cc12` was tested, and the max response, negative = inhibition was inactive: -14.3%.
For `COc1cccc(CCN2CCC(CNS(=O)(=O)c3cc(-c4cc(C)no4)ccc3C)CC2)c1`, the max response, negative = inhibition was inconclusive: -45.1%.
For `O=C(Nc1ccc(Cl)cc1)Nc1cccnc1`, the max response, negative = inhibition was inactive: -13.6%.
In the case of `Cc1c(CC(=O)O)c(=O)oc2c(C)c(OCc3ccc(F)cc3Cl)ccc12`, the max response, negative = inhibition is reported as inactive: 25.1%.
With `COc1ccccc1CN1CCC(n2nccc2NC(=O)CCCc2ccccc2)CC1` the max response, negative = inhibition was inconclusive: -33.7%.
For `Nc1cc(Cl)nc(N/N=C/c2c(O)ccc3ccccc23)n1`, the max response, negative = inhibition was active: -146%.
For `c1ccc(CCNc2nc(-c3ccccn3)nc3ccccc23)cc1`, the max response, negative = inhibition was active: -70.4%.
